Results taken from patent US20230357430A1, “RNF167 AND CASTOR1 AS NOVEL MTOR TARGETS” (UNIVERSITY OF PITTSBURGH - OF THE COMMONWEALTH SYSTEM OF …, priority 2020, published 2023).
Substitutions are numbered along the chain they refer to. In names and notes the source's numbering stands. Results are given in words; binding and its absence hold for the method and conditions named. In cells and extracts the contact can be indirect. Some entries that bind do so weakly or less than the wild type. Where a sequence is shown, tags or fusion partners need not be part of it.

Amino acid sequences for entries named in this document (tags omitted). A change or cut given only in a name is not applied to a line headed by its entry. Residues count along the entry.
UniProt P31749: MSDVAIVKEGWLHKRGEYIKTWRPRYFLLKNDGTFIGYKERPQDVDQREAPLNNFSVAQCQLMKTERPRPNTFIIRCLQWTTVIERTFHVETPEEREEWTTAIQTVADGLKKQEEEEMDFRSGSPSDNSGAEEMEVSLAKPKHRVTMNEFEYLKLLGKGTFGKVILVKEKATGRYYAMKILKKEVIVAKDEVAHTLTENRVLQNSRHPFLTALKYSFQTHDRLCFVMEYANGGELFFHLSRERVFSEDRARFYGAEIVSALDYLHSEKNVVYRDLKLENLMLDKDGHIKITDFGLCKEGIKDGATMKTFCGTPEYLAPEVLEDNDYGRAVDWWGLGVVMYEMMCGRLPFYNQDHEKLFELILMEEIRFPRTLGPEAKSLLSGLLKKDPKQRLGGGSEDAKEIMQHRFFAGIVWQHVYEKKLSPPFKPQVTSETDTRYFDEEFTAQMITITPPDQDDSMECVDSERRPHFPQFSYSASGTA
AKT1 kinase domain: residues 120-433 of P31749

Assays:
[1] = target: T1, human CASTOR1 wild type (Flag-CASTOR1 WT) (human) (UniProt Q8WTX7); experiment: co-immunoprecipitation, MCF7 cells (FIG. 13B)
T1 sequence (looked up): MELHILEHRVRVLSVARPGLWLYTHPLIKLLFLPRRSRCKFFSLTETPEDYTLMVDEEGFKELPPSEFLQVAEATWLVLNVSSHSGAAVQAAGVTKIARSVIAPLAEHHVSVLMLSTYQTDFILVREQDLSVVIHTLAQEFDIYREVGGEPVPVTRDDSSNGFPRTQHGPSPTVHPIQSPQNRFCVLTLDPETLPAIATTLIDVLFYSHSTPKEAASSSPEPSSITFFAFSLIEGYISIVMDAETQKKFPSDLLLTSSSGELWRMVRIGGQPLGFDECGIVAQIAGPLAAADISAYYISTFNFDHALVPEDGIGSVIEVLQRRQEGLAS

[2] = target: AKT1 (ectopically expressed) (UniProt P31749); experiment: co-immunoprecipitation and immunoblotting (FIGS. 8J-8M)
[3] = target: AKT1 (ectopically expressed) (UniProt P31749); experiment: co-immunoprecipitation, two experiments quantified (FIGS. 8J-8M)
[4] = target: AKT1 (ectopically expressed) (UniProt P31749); experiment: co-immunoprecipitation (discussion of Example 1)
AKT1 kinase domain [5] = target: AKT1 kinase domain (UniProt P31749); experiment: co-immunoprecipitation with AKT1 domain constructs (FIGS. 8E-8F)
[6] = target: AKT1 (ectopically expressed) (UniProt P31749); experiment: co-immunoprecipitation, MCF7 cells (FIG. 13B)
[7] = target: AKT1 (ectopically expressed) (UniProt P31749); experiment: co-immunoprecipitation and immunoblotting (FIGS. 8A-8F)
AKT1 kinase domain [8] = target: AKT1 kinase domain (UniProt P31749); experiment: co-immunoprecipitation with AKT1 domain constructs (FIG. 8F)
[9] = target: AKT1 (ectopically expressed) (UniProt P31749); experiment: co-immunoprecipitation and immunoblotting (FIGS. 8A, 8C)

Measured: binding

AKT1 (ectopically expressed) (from UniProt P31749 1-480) (enzyme)
binds: [1]

B1: human Flag-CASTOR1 S14A (protein, UniProt Q8WTX7 1-329, looked up, not shown: small tags and cut ends)
chain: T1 sequence (looked up) with S14A
binds: [2] | [3]

B2: human Flag-CASTOR1 S14D (protein, UniProt Q8WTX7 1-329, looked up, not shown: small tags and cut ends)
chain: T1 sequence (looked up) with S14D
binds: [2] | [3] | [4]

B3: human CASTOR1 wild type (Flag-CASTOR1 WT) (other, UniProt Q8WTX7 1-329, looked up)
chain: T1 sequence (looked up)
notes: Expressed in cells and pulled down from lysates; also called HA-CASTOR1; cytosolic arginine sensor for mTORC1 subunit 1; not shown: N-terminal Flag tag
not listed: [1] | [3] | [4]
binds: all other assays above
